Experimental data taken from patent US5149780A (The Scripps Research Institute, priority 1988, dated 1992).

Test: Boc solid-phase peptide synthesis; peptidylglycine a-amidating monooxygenase resins
Details: whole synthesis, HPLC, C18 μBondapak column, linear gradient 0-60% acetonitrile in 0.1% trifluoroacetic acid

Sequence: KYGRRGDS
- purity (crude or final not stated): >85%

Plain letter strings leave the end groups untold.
